The text below walks through data of publication PMC10284602.

Chains of the proteins cited; added tags and fusions are not shown.
UniProt Q15691: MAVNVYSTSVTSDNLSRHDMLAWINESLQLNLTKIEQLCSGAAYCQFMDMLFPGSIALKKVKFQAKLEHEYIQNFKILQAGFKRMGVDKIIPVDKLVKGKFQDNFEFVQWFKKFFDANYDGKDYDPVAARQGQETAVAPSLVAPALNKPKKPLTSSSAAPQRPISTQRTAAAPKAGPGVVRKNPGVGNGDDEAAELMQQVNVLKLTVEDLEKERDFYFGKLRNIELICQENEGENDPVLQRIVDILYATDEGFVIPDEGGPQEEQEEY

For one assay, the target named is GST-EB1 (human) (UniProt Q15691). Briefly: pull-down; purified GST-EB1 or GST-EB3 on Glutathione Sepharose beads as bait, mixed with brain lysate of TEN2-HA knock-in mice at 4 °C for 1 hr; 20 mM Hepes, 150 mM NaCl, 0.5% TritonX-100, pH 7.4; Western blot for HA; GST as control; only the target purified.
The next assay deals with GST-EB3 (human) (UniProt Q9UPY8). Described as above.

No constants are given. Whether binding was seen depends on the method and setting. Binding seen in cells or lysates may run through a third protein. Some entries that bind do so weakly or less than the wild type.

Regarding “Teneurin-2 with a 3×HA tag knocked in just before the stop codon (TEN2-HA) (from UniProt Q9WTS5 1-2764)”, the binding entry with GST-EB1 (human) and with GST-EB3 (human) was “binds” throughout.
